Assay results from patent US6635429.

Chains of the proteins cited; added tags and fusions are not shown. A line that says so, or that is headed by a name, gives the form on record, which may keep a tag or linker. Residues count along the entry.
UniProt P28700, 140-467, stated change not applied: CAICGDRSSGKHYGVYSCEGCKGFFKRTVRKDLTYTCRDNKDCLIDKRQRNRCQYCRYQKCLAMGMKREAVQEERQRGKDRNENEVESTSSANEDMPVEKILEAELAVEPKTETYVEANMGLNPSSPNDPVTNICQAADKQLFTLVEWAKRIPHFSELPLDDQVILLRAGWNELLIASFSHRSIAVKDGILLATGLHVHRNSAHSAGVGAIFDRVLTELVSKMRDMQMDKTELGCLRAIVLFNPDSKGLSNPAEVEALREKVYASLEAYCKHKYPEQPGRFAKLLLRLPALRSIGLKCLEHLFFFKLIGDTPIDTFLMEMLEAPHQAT
RARα1/RXRα heterodimer (yeast) (Homo sapiens/Mus musculus), one chain, as listed by the source: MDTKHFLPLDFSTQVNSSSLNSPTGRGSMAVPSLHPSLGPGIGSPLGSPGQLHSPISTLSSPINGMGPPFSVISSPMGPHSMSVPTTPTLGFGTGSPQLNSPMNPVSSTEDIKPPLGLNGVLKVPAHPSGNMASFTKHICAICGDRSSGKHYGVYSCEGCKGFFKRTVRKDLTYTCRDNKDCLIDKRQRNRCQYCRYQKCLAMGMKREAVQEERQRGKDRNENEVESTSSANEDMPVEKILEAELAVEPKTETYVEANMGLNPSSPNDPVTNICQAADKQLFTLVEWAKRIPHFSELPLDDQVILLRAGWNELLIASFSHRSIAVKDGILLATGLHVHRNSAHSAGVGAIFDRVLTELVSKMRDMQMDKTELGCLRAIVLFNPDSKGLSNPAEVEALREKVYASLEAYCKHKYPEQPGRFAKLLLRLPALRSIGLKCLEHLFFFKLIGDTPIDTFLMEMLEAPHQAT
RARα1/dnRXRα (yeast) (Homo sapiens/Mus musculus), one chain, as listed by the source: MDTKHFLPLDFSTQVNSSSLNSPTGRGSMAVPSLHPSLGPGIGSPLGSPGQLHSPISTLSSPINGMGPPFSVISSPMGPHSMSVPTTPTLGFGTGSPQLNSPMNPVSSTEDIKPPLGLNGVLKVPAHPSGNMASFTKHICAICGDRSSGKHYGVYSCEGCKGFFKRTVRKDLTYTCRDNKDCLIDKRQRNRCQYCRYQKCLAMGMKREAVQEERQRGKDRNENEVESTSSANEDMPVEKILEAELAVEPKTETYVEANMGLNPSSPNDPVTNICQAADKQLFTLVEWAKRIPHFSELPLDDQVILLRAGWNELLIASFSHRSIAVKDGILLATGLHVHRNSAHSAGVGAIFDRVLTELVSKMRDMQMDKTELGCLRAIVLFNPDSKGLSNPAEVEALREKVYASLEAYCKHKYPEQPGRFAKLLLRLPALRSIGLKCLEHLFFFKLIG

Experiments:
[1] = biological target: T1, RARα1 (yeast) (Homo sapiens) (UniProt P10276); experiment: EMSA; conditions: data not shown; protein in an extract; protein details: yeast-expressed
T1 sequence (looked up): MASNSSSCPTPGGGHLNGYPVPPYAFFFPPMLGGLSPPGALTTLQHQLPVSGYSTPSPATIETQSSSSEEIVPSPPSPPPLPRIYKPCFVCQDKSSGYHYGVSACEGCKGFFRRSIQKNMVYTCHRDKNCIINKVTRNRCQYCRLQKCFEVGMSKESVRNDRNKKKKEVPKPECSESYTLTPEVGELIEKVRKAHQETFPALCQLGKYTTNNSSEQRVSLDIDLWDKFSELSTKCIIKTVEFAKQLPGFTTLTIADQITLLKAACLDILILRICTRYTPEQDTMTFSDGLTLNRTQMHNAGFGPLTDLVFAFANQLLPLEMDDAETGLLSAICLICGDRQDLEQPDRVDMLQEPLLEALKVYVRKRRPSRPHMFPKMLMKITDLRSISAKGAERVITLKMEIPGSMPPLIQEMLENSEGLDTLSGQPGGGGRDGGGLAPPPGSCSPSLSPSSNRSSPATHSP

[2] = biological target: RXRα (yeast) (Mus musculus) (UniProt P28700); experiment: EMSA; conditions: protein in an extract, protein details: yeast-expressed
[3] = test system: RARα1/RXRα heterodimer (yeast) (Homo sapiens/Mus musculus); experiment: EMSA; conditions: protein in an extract, protein details: yeast-expressed
RXRαΔAB (Mus musculus) = RXRαΔAB (Mus musculus) (UniProt P28700); experiment: activity in cells; conditions: yeast; comparable to full length; protein in cells; protein details: yeast-expressed; only the site is given
[4] = test system: RARα1/dnRXRα (yeast) (Homo sapiens/Mus musculus); experiment: EMSA; conditions: retains enhancement of RARα binding; protein in an extract; protein details: yeast-expressed
[5] = biological target: T1, RARα1 (yeast) (Homo sapiens); experiment: activity in cells; conditions: all-trans or 9-cis RA, protein in an extract, protein details: yeast-expressed, only the site is given
[6] = biological target: RXRα (yeast) (Mus musculus) (UniProt P28700); experiment: activity in cells; conditions: 9-cis RA, protein in an extract, protein details: yeast-expressed, only the site is given

Row | Sequence | binding result [1] | binding result ([2]; data not shown) | binding result [3] | further results
1 | AGGTCAGAGGTCA (double strand) [DR1] | no binding |  |  | binding result ([2]; weak homodimer shift after prolonged autoradiography): binds more weakly; binding result ([3]; efficient): binds; activity on this sequence (RXRαΔAB (Mus musculus)): active
2 | AGGTCAGCAGGTCA (double strand) [DR2] | no binding | no binding |  | binding result ([3]; spacer and flank dependent): binds more weakly
3 | AGGTCAGCGAAGGTCA (double strand) [DR4] | no binding | no binding | binds more weakly | 
4 | AGGTCAGCGAGAGGTCA (double strand) [DR5] |  |  |  | binding result ([3]; efficient, supershift by anti-RARα): binds; binding result [4]: binds; activity on this sequence [5]: less active; activity on this sequence [6]: less active
5 | AGGTCAGCGAGGTCA (double strand) [DR3] | no binding | no binding | binds more weakly | 
6 | AGGTCATGACCT (double strand) [IR0] |  |  |  | binding result ([3]; after prolonged autoradiography): binds more weakly

For part of these data: Weaker means in comparison with the reference protein, sequence or condition of that experiment. For part of these data: Where a protein sequence is shown, tags need not be part of it. For part of these data: Where cells or extracts were used, other partners may take part. For part of these data: Negatives hold for the conditions tested.
